{"sequences": {"note": "Sequences of proteins named here, by UniProt entry; tags and fusion partners are left off.", "UniProt Q86W56, whole entry, species assumed": "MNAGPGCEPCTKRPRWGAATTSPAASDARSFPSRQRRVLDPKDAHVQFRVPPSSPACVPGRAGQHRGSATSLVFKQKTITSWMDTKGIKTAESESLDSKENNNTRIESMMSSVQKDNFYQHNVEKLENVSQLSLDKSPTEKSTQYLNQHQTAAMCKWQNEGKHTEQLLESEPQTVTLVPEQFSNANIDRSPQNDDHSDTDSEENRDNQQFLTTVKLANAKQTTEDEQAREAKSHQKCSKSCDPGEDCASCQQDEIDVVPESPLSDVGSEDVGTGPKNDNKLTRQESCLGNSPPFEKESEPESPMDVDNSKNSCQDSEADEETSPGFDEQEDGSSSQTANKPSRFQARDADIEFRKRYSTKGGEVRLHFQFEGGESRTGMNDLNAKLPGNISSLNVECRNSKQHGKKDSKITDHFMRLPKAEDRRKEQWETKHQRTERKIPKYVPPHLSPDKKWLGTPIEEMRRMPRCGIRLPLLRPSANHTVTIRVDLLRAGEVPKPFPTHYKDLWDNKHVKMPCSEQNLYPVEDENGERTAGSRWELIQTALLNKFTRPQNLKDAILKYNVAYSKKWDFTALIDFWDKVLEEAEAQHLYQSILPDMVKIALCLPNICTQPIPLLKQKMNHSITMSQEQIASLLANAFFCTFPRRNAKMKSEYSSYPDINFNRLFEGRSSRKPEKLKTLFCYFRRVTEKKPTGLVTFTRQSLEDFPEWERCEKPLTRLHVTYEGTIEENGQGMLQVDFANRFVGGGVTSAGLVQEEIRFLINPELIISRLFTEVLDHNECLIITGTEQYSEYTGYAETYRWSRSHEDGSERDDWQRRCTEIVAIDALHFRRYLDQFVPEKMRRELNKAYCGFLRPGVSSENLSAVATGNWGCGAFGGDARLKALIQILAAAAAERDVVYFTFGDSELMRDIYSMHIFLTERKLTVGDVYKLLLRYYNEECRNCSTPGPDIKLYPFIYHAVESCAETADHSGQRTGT"}, "source": "patent US20090012088A1", "about": "(priority 2005, published 2009)", "origin": "cited, not measured here", "molecular_target": "PARG (Homo sapiens, UniProt Q86W56)", "details": "32P-PAR assay; cited from earlier work", "note": "At least one compound was matched to its structure with a doubt left.", "data": [{"smiles": "CC[n+]1c(-c2ccccc2)c2cc(N)ccc2c2ccc(N)cc21", "note": "[ethidium bromide]", "values": [{"measurement": "PARG inhibition (in words)", "result": "not inhibitory"}]}]}
